Data as given in PubChem BioAssay AID602196 (INSERM, 2012).
The deposit covers about 23,000 reagents; shown is an unselected part. 455 of all reagents (2%) count as active. 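Active includes both protection and sensitisation; some change values fall well beyond the stated -50 to +50 range.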 Not all columns of the deposit are shown. The record does not give: the amount of reagent.

Assay: 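Genes whose knock-down alters cisplatin killing of lung cancer cells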
Cell system: human A549 lung cancer cells
Reagents: siRNA pair against human genes
Timing: 48 h transfection before cisplatin; time from cisplatin to read-out not stated
Conditions: cisplatin at a dose killing half of control-siRNA cells; exact dose and duration not given
Read-out: 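Shift in cisplatin death relative to control siRNA, from -50 (all cells die) to +50 (no cells die); siRNAs harmful on their own scored 0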
Reading the numbers: two-siRNA summed score (-2 to +2): higher = both siRNAs protect from cisplatin killing; -2 means both sensitise; mean protection from cisplatin (shift in death) and protection from cisplatin (shift in death), siRNA C: higher = protection from cisplatin killing
Rule for the call: 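Each siRNA scores 0 if harmful alone by LDH or WST-1, otherwise +1 if it reduces and -1 if it increases cisplatin killing; a gene is active when both siRNAs agree (sum +2 or -2)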
Calls: active = both siRNAs shift cisplatin killing the same way; inactive = no consistent shift, or siRNA harmful alone

target	two-siRNA summed score (-2 to +2)	mean protection from cisplatin (shift in death) (%)	protection from cisplatin (shift in death), siRNA C (%)	Call
LSMEM1 (GeneID 286006)	1	16.5	9	inactive
LOC205655	-1	0	11.1	inactive
BTBD1 (GeneID 53339)	0	7.9	4.3	inactive
RAF1 (GeneID 5894)	0	7.2	6.2	inactive
MPP1 (GeneID 4354)	0	1.6	-8.2	inactive
ATP5MJ (GeneID 9556)	0	2.4	1.5	inactive
LOC401188 (retired record) (GeneID 401188)	0	7	2.4	inactive
FLJ37307	0	8.3	3.2	inactive
SRSF2P1 (GeneID 392439)	1	20.5	16.1	inactive
SLITRK2 (GeneID 84631)	0	6.6	2.7	inactive
ZBTB26 (GeneID 57684)	0	-1.9	5.7	inactive
MTIF2 (GeneID 4528)	1	3.7	-3	inactive
MARCO (GeneID 8685)	0	7.9	3.1	inactive
CERKL (GeneID 375298)	0	8.2	10	inactive
CCL7 (GeneID 6354)	1	14.3	22.4	inactive
UBTD2 (GeneID 92181)	0	6.9	-2.1	inactive
LRRC2 (GeneID 79442)	0	20.7	22.8	inactive
ANKS6 (GeneID 203286)	0	15.7	24.2	inactive
MNDA (GeneID 4332)	0	3.3	-6.6	inactive
KRTAP19-4 (GeneID 337971)	0	-0.9	-7.4	inactive
SLC46A2 (GeneID 57864)	0	-10.3	10.5	inactive
KRTAP1-1 (GeneID 81851)	0	-0.9	7.2	inactive
TPGS1 (GeneID 91978)	0	9.3	13.7	inactive
IER3IP1 (GeneID 51124)	0	1.8	-7.1	inactive
KLF14 (GeneID 136259)	0	23.5	36.1	inactive
C1orf115 (GeneID 79762)	0	-2.5	2.9	inactive
CYCS (GeneID 54205)	0	2.7	8.4	inactive
SH2D3A (GeneID 10045)	-1	-21.3	-30.9	inactive
PML (GeneID 5371)	-1	-24.1	-24.9	inactive
ZNF486 (GeneID 90649)	1	14.9	11.2	inactive
PTPRB (GeneID 5787)	1	12.6	16.2	inactive
TSLIG3B (GeneID 283742)	0	6.7	1.9	inactive
KAT6A (GeneID 7994)	0	2	7.2	inactive
IL24 (GeneID 11009)	0	-10.5	-7.5	inactive
MTMR9 (GeneID 66036)	-1	-7	4.6	inactive
LOC441446	0	10.6	3.8	inactive

Already shown: an excerpt of the list.
target	two-siRNA summed score (-2 to +2)	mean protection from cisplatin (shift in death) (%)	protection from cisplatin (shift in death), siRNA C (%)	Call
LSMEM1 (GeneID 286006)	1	16.5	9	inactive
LOC205655	-1	0	11.1	inactive
BTBD1 (GeneID 53339)	0	7.9	4.3	inactive
RAF1 (GeneID 5894)	0	7.2	6.2	inactive
MPP1 (GeneID 4354)	0	1.6	-8.2	inactive
ATP5MJ (GeneID 9556)	0	2.4	1.5	inactive

Further reagents:
target	two-siRNA summed score (-2 to +2)	mean protection from cisplatin (shift in death) (%)	protection from cisplatin (shift in death), siRNA C (%)	Call
LYSMD4 (GeneID 145748)	0	5.2	4.2	inactive
SLC35F3 (GeneID 148641)	0	6.5	1.5	inactive
PPP1R2C (GeneID 80316)	0	-2	-7.7	inactive
NECTIN2 (GeneID 5819)	0	5.7	28.8	inactive
TEDC1 (GeneID 283643)	0	-5	0.1	inactive
LOC441503	0	11.5	5.5	inactive
LINC00313 (GeneID 114038)	0	-6.8	-8.7	inactive
LOC284009 (GeneID 284009)	1	14.1	11.9	inactive
ZNF77 (GeneID 58492)	0	20.7	42.2	inactive
ATP23 (GeneID 91419)	0	1.8	3.7	inactive
CRIP3 (GeneID 401262)	0	22.4	26.9	inactive
LOC392437	0	8.7	5.2	inactive
IMP4 (GeneID 92856)	0	4.2	9.1	inactive
TOB2 (GeneID 10766)	2	21.5	21.2	active
PROS1 (GeneID 5627)	0	-0.5	-12.9	inactive
CNGA3 (GeneID 1261)	0	0.6	-8.6	inactive
CCL20 (GeneID 6364)	0	3.1	5	inactive
LOC402527	0	3.3	5.3	inactive
RDUR (GeneID 152225)	0	8.1	16.7	inactive
LOC388809	1	17.6	9	inactive
TFAM (GeneID 7019)	0	3	2.9	inactive
FLJ46552 (retired record) (GeneID 401230)	0	3.8	3.4	inactive
B4GALT7 (GeneID 11285)	0	-0.1	4.4	inactive
SYP (GeneID 6855)	0	2.5	17.5	inactive
LINC00343 (GeneID 144920)	0	1.9	-2.4	inactive
TVP23C (GeneID 201158)	1	16.2	17.7	inactive
ARRB2 (GeneID 409)	0	-0.3	7.1	inactive
VPS35L (GeneID 57020)	0	1.7	5.7	inactive
LDAF1 (GeneID 57146)	0	-4.7	1	inactive
HNRNPH1 (GeneID 3187)	1	14.4	-8.7	inactive
FGF17 (GeneID 8822)	0	3.4	10.3	inactive
TMEM89 (GeneID 440955)	0	16.8	10.6	inactive
DEPP1 (GeneID 11067)	1	5.6	11	inactive
LOC440104	1	13.9	12	inactive
LAMTOR3 (GeneID 8649)	1	28	52	inactive
USP40 (GeneID 55230)	0	-4.1	-7.4	inactive
NARS2 (GeneID 79731)	0	13.2	13.7	inactive
